Measured values reported in paper PMC10693086.
These are yes or no findings as the source states them, for the method shown. In cells and extracts the contact can be indirect. Some entries that bind do so weakly or less than the wild type.

The chains behind the UniProt entries cited, without tags or fusion partners.
UniProt P47811: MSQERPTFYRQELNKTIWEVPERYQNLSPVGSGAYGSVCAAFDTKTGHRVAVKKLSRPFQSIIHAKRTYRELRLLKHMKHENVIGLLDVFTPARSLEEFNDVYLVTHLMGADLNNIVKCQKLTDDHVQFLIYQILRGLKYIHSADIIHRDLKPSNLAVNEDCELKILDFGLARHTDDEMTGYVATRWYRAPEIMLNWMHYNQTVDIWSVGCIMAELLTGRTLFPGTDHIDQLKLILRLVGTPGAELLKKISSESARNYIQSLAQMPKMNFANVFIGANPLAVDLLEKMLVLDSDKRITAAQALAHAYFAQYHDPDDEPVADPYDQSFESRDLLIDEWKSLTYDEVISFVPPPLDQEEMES
UniProt Q16539: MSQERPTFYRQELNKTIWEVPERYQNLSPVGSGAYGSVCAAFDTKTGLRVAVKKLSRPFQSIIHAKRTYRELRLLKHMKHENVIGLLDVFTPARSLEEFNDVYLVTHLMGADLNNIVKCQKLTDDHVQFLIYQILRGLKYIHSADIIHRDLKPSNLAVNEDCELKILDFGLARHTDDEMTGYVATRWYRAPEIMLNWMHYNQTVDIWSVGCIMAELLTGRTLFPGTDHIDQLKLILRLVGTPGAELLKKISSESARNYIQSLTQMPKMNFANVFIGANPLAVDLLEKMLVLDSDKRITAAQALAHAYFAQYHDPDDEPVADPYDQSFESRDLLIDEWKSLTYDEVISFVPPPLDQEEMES
UniProt Q61315: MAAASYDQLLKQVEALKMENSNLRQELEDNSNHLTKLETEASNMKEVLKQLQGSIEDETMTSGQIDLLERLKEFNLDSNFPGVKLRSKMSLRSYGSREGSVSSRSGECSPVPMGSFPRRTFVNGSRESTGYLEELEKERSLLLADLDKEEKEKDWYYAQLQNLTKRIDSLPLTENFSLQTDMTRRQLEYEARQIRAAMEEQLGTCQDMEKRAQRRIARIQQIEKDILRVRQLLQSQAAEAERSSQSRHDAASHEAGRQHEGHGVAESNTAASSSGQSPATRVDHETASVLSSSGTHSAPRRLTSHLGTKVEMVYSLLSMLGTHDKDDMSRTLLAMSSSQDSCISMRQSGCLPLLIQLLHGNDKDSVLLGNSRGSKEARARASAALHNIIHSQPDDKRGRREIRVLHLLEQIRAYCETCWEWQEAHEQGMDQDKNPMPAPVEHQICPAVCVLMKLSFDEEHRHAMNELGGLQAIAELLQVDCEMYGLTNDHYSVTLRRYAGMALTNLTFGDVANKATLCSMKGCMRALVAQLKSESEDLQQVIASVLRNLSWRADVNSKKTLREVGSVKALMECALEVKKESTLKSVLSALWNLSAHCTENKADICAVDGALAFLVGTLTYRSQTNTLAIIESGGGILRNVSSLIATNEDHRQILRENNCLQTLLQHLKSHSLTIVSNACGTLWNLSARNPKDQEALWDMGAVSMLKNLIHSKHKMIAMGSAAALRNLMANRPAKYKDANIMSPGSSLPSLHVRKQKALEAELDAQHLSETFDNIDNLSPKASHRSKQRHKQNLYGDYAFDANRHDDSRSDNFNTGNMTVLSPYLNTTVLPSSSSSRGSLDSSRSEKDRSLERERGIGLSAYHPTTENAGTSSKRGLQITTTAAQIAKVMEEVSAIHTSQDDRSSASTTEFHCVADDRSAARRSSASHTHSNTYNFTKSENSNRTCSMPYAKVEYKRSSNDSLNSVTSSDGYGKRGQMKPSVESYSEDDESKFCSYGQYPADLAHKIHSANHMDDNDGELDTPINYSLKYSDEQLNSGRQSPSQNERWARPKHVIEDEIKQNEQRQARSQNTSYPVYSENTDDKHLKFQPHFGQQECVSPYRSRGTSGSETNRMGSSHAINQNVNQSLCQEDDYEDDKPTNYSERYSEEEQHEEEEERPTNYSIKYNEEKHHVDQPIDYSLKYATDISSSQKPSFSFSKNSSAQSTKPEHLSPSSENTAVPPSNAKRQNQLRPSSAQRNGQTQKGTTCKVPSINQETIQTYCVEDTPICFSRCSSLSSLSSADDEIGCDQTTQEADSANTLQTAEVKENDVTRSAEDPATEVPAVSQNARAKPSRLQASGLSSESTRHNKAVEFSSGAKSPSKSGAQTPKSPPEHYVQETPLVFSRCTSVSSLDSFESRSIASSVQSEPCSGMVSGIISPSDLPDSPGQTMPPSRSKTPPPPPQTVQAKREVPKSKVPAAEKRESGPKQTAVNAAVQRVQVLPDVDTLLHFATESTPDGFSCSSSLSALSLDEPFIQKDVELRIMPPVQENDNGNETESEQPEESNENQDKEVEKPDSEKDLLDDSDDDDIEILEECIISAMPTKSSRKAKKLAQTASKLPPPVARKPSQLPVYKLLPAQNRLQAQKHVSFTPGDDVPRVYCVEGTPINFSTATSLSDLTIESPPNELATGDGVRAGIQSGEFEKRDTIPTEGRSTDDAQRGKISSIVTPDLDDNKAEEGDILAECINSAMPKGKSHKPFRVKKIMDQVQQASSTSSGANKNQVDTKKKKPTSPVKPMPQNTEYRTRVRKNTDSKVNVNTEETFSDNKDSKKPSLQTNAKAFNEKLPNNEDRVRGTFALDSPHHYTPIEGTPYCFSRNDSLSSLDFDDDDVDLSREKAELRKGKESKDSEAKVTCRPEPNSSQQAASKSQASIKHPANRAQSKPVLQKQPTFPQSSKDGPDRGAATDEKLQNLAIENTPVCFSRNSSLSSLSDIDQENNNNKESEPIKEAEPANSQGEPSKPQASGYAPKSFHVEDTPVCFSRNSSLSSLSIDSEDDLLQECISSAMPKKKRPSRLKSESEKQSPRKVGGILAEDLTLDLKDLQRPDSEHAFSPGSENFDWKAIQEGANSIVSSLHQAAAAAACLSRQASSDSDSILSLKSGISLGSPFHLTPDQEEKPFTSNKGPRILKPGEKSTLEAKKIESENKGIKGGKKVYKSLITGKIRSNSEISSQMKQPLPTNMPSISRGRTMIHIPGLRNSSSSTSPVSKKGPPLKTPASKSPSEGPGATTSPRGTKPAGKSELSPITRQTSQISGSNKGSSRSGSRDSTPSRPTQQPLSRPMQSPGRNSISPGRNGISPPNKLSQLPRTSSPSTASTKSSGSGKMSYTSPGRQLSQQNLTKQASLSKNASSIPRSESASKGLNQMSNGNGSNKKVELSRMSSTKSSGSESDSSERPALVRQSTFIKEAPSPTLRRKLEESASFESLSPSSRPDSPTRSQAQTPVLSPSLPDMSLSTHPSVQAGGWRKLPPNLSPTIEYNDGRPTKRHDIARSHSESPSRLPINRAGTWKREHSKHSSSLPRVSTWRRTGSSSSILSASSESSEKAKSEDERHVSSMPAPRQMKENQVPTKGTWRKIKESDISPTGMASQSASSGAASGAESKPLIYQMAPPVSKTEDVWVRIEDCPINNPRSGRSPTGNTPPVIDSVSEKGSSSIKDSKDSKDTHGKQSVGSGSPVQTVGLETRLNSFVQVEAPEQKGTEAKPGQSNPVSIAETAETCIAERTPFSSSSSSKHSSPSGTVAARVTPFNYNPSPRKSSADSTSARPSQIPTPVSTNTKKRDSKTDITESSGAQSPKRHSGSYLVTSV
UniProt O15169: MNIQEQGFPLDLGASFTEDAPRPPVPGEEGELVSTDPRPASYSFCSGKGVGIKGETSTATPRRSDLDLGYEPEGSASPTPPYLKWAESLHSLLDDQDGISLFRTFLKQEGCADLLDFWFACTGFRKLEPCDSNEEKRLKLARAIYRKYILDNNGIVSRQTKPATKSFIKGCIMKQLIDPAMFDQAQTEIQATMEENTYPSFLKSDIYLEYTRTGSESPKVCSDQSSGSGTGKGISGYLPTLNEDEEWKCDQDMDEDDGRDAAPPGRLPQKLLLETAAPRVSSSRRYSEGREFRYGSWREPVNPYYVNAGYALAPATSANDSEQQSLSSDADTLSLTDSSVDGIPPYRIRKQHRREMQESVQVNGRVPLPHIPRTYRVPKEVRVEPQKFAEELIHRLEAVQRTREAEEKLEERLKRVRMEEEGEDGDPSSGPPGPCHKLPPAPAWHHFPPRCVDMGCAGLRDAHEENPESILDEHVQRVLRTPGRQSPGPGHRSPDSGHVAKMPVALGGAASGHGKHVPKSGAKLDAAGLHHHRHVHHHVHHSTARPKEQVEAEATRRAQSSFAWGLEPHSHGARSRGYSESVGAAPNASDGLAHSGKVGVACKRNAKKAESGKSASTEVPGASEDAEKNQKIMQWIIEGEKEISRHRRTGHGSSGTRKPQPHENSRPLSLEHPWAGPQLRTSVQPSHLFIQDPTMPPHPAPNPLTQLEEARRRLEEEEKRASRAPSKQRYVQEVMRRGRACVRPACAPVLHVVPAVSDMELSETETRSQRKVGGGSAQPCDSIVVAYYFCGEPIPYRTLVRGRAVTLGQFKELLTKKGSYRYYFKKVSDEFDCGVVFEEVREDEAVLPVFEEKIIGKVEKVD
UniProt O35625: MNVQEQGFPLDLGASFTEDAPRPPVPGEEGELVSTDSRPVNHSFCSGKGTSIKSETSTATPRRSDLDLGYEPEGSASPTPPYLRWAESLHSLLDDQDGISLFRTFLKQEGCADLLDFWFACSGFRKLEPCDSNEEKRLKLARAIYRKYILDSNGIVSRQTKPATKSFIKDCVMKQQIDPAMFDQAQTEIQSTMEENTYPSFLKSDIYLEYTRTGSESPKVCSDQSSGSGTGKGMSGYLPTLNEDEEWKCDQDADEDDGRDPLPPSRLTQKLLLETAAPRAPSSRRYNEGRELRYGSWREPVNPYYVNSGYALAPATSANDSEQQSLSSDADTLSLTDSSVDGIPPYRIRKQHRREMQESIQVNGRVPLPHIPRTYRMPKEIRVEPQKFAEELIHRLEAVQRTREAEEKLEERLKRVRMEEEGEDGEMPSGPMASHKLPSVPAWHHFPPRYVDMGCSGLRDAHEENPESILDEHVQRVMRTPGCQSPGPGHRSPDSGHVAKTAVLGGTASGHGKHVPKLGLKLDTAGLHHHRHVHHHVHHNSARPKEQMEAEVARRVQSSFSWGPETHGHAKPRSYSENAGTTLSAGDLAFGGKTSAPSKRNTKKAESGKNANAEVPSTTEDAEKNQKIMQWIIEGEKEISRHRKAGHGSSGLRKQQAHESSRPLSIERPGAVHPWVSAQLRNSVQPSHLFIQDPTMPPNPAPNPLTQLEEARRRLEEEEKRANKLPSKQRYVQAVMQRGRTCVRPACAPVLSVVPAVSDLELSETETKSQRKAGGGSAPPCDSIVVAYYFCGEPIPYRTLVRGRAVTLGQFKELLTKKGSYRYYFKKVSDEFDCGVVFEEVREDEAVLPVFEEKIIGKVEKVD
UniProt Q02248: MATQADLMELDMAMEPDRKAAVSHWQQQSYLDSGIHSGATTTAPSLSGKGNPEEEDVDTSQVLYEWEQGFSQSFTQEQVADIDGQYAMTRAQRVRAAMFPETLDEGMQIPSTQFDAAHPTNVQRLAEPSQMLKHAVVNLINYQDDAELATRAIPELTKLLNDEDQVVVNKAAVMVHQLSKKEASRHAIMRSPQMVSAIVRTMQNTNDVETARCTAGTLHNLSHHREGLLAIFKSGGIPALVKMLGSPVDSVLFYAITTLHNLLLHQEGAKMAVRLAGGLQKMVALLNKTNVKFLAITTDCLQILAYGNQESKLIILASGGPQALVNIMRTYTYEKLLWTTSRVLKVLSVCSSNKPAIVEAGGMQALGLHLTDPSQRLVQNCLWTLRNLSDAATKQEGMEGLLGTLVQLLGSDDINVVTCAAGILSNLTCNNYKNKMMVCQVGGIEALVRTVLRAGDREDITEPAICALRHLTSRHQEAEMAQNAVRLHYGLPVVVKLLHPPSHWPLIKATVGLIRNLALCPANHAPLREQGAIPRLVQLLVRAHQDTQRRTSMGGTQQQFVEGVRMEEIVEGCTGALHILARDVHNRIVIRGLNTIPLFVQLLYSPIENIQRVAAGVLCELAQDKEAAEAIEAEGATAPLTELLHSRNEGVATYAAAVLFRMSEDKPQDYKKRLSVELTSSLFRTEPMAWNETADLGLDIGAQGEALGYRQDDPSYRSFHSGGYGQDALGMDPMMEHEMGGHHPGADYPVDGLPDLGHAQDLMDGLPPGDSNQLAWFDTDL

Key:
[1] = molecular target: p38α (endogenous, mouse colon tissue) (mouse (endogenous in C57BL/6 colon tissue)) (UniProt P47811); assay: co-IP; lysate of normal colon tissue from C57BL/6 mice; immunoprecipitation with anti-p38α on Dynabeads Protein A or G, immunoblot; lysis buffer 50 mM Tris-HCl pH 7.4, 5 mM EDTA, 250 mM NaCl, 1% Triton X-100; IgG as negative control
[2] = molecular target: p38α (endogenous, HCT-116 cells) (human (endogenous in HCT-116)) (UniProt Q16539); assay: co-IP; whole-cell lysate of HCT-116 cells, endogenous proteins; immunoprecipitation with anti-p38α on Dynabeads Protein A or G, immunoblot; lysis buffer 50 mM Tris-HCl pH 7.4, 5 mM EDTA, 250 mM NaCl, 1% Triton X-100; IgG as negative control

Substance	binding [1]	binding [2]
APC (endogenous, mouse colon tissue) (from UniProt Q61315 1-2845)	binds	–
Axin-1 (endogenous, HCT-116 cells) (from UniProt O15169 1-862)	–	binds
Axin-1 (endogenous, mouse colon tissue) (from UniProt O35625 1-863)	binds	–
β-catenin (endogenous, mouse colon tissue) (from UniProt Q02248 1-781)	binds	–
